No constants are given. Whether binding was seen depends on the method and setting. Binding seen in cells or lysates may run through a third protein. Some entries that bind do so weakly or less than the wild type.
Biological target: Bcl2 (UniProt P10415)
Experiment: co-IP; 293T cells cotransfected with Bcl-2 and HA-Casp8p41; extracts treated with the DUB Trabid, YOD1 or USP2 with or without NEM; immunoprecipitated with anti-Bcl2 or anti-HA, immunoblotted for HA

By UniProt entry, the sequences of proteins in these tests, tags left out. Residues count along the entry.
UniProt P10415: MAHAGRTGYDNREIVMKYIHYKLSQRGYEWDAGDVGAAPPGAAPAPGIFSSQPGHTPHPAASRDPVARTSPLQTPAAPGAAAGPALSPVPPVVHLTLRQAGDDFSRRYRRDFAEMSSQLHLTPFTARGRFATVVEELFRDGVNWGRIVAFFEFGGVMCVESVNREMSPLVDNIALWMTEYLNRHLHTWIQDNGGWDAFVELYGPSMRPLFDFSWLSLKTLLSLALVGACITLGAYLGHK
UniProt Q14790, residues 1-355: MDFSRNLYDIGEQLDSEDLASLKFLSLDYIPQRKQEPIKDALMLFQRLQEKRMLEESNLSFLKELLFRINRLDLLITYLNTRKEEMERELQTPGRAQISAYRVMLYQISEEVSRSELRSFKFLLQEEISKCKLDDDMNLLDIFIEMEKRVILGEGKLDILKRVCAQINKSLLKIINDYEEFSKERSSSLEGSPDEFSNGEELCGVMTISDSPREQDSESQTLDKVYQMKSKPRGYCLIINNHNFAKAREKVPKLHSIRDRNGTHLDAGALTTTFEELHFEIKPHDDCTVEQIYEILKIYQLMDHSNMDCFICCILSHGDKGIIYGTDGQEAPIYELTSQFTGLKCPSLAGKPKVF

binding: binds
Substance: HA-Casp8p41 (from UniProt Q14790 1-355) (domain or fragment)

Source: publication PMC6002723
